No constants are given. Whether binding was seen depends on the method and setting. In cells and extracts the contact can be indirect. A yes stands for co-enrichment or nearness to the bait. Other partners may have been found. Tags and fused reporters may be left off the sequences shown.
B1: SecY2 of S. gordonii (protein, UniProt A8AWV0 1-407)
chain: MKSFFKPLILKKFLWTLLFVFIYVLGSKLTLPFVDVSSIAKLNGDSVTLNYAAALMGGNLRSMSFFSIGLAPWMSSILIWQMFTVSKRLGFNKLSMESQEKRRMLLTLAIALIQSLALVLNLPLKTVVGVGQGTIVFLNTLILIAGTYFLIWLTDLNSSMGLGGSIMIVMVSMISYIPQDIWLSIQELKISPLILALIGFFSLCFLYLAVLVERAKYRIPINKINIHNRFKKYSYLDIRVNAAGGLPIMYAMTLVSIPQYFLMLFLFFQPNNRLLKEGILSLAMGGIPWFILYLLTIFILAWAFAFINVNSDQIAERMQRSGEYIENLYPGEATRRYIHKIVGYFAFVGALYLVLVAGLPMLLIFLDIRYMRLGMIPGMFMIFIGMVFSIKDEVDTLTLNDRYRSLF

Sequences of proteins named here, by UniProt entry; tags and fusion partners are left off. A change or cut given only in a name is not applied to a line headed by its entry.
UniProt Q4L2X2: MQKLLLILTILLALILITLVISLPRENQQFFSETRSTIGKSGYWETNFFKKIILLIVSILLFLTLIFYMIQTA

Target: T1, His-Asp4 (accessory Sec protein Asp4 of S. gordonii with an N-terminal His6 tag) (S. gordonii) (UniProt Q4L2X3)
T1 sequence: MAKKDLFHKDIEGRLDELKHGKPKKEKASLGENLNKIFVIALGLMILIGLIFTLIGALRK
Assay: affinity purification with mass spectrometry; His-Asp4, SecY2 and Asp5 co-expressed in E. coli C43; DDM-solubilised membranes applied to Ni2+-Sepharose (wash 30 mM imidazole, elution 330 mM imidazole), then Superdex 200 gel filtration in TSG130 buffer with 0.02% DDM; SDS-PAGE bands at 25 and 10 kDa identified by LC-MS

| Molecule | binding |
| --- | --- |
| Asp5 (accessory Sec protein Asp5 of S. gordonii) (from UniProt Q4L2X2) | binds |
| B1 | binds |
